Test results from PubChem BioAssay AID1347076 (National Center for Advancing Translational Sciences (NCATS), 2019).
“And” between values parts separate entries of the source, which are not always exact repeats. Identical values can stand only once. Hit rate of the full screen: of about 400,000 compounds, about 13,000 (3.2%) were called active. The inconclusive results got no clear call from the source; some entries with a clear call stand among them for comparison. Calls follow the shape of the dose curve; as a rule, active = well fitted cell-killing curve with a large enough effect; inconclusive = small, poorly fitted or top-dose-only effect, or effect the other way; inactive = flat fitted curve, though single readings scatter. Potencies beside an inconclusive call are fits to weak or partial responses and may not hold up.

Assay: qHTS assay for MDR1-selective chemotherapeutics: Primary screen using the drug-selected MDR subline cells KB-V1; also: nearly all actives have a fitted effect of over 60% in size
Details: KB-V1 MDR cells viability, CellTiter-Glo, 72 h; activity change, negative = cytotoxicity: at 46.1 µM (top of the series)
In short: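 KB-V1 MDR subline cells in DMEM (phenol-red free, 10% FBS) exposed to compounds in qHTS concentration series for 72 h at 37 degrees C. Viability read by CellTiter-Glo luminescence; concentration-effect curves fitted after normalization and correction.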
% is scaled to controls: 0 for no effect and ±100 for the full control effect; potency is read from the fitted curve at half-maximal effect.

Structure (SMILES)	Potency	activity change, negative = cytotoxicity
COc1cc2c(cc1OC)C(c1ccc(-c3ccc(Cl)c(Cl)c3)o1)=NCC2	inconclusive: 29.1 µM [cytotoxic, single point] and inconclusive: 20.6 µM [cytotoxic, single point]	
C/C(=N\Nc1cc(-c2ccccc2)nc(-c2ccc(Br)cc2)n1)c1cccc(N)c1	active: 14.6 µM	
Cc1ccc2c(c1)-c1nc(-c3ccccc3)cc(-c3ccccc3)c1CO2	inactive	
CCOC(=O)[C@]12CCC=C1N(Cc1cccc3ccccc13)C(=O)[C@H](CC(=O)NCC13CC4CC(CC(C4)C1)C3)C2	inconclusive: 13 µM [cytotoxic, partial curve]	
O=c1[nH]c(=S)[nH]c2sc3c(c12)CCCCCC3	inactive	
COc1ccc(/C(O)=C2/C(=O)C(=O)N(CC3CCCO3)C2c2cccc(OC)c2)cc1 (stereo unspecified)	inconclusive: 16.4 µM [cytotoxic, partial curve, poor fit]	
N#Cc1ccccc1S(=O)(=O)N1CCN(C(=O)C2CC(=O)N(c3ccc4c(c3)OCCO4)C2)CC1 (stereo unspecified)	inactive	
Cc1ccc(C)c(C(=O)OCC(=O)Nc2cccc(S(=O)(=O)N3CCCCC3)c2)c1	inconclusive: 14.6 µM [cytotoxic, partial curve, poor fit]	
O=C(Nc1nnc(-c2ccc3c(c2)CCCC3)o1)C1COc2ccccc2O1 (stereo unspecified)	inactive	
CCOC(=O)C1=CNS(=O)(=O)NC1c1ccccc1 (stereo unspecified)	inactive	
Nc1ccc(C(=O)OCC(=O)Nc2cc([N+](=O)[O-])ccc2F)cc1		inconclusive: -7.02%
COc1ccc(CC(CC(=O)O)C(=O)NCc2ccccc2)cc1 (stereo unspecified)	inactive	
O=C(NC1CCCC1)c1ccc2c(c1)N(Cc1c(F)cccc1Cl)C(=O)c1ccccc1S2	inactive	
CC(C)c1ccc(/C=N/NC(=O)c2ccccc2Cl)cc1	active: 4.61 µM	
Cn1cnnc1SCC(=O)NCCC1=CCCCC1	inactive	
COc1ccc(NC(=O)c2sc(=O)n(Cc3ccc(F)c(Cl)c3)c2C)cc1OC	inconclusive: 10.3 µM [cytotoxic, partial curve]	
c1ccc(-n2cnnc2SCc2cn3ccccc3n2)cc1	inconclusive: 29.1 µM [cytotoxic, single point]	
CCOC(=O)C1=C(O)/C(=C/c2cc(OC)c(O)c(OC)c2)SC1=Nc1ccc(OC)cc1	inactive	
O=C(Nc1ccccn1)c1ccc(S(=O)(=O)N2CCCCC2)cc1	inconclusive: 14.6 µM [cytotoxic, single point]	
CCOC(=O)Cc1c(C)nc2c(-c3ccc(OC)cc3)c(C)nn2c1C	inconclusive: 8.2 µM [cytotoxic, partial curve]	
COc1ccc(C(=O)N2CCCCCC2)cc1OC1CCN(C(C)C)CC1	inconclusive: 29.1 µM [cytotoxic, single point]	
Cc1nc2ncnn2c(N2CCN(c3cccc(C(F)(F)F)c3)CC2)c1C	active: 2.59 µM	
CCOC(=O)c1sc(NC(=O)C2=COCCO2)c(C#N)c1C	inconclusive: 23.1 µM [cytotoxic, partial curve]	

Structure (SMILES)	Potency	activity change, negative = cytotoxicity
Cc1cccc(C)c1NC(=S)N(Cc1ccccc1)Cc1cccnc1	inconclusive: 6.51 µM [cytotoxic, partial curve]	
CC(NC(=O)c1cccc(Cn2cc([N+](=O)[O-])cn2)c1)c1ccc(C(C)(C)C)cc1 (stereo unspecified)	active: 20.6 µM	
CN(C)c1nc(NCc2ccccc2)nc(SCC(=O)Nc2ccccc2Cl)n1	inconclusive: 18.4 µM [cytotoxic, single point]	
COC(=O)C1=C(C)NC(=O)/C1=C\c1cc(C)n(-c2ccccc2)c1C	inconclusive: 0.0052 µM [rising, full curve, poor fit]	
O=C(Nc1ccccc1)Nc1nnc(-c2ccncc2)s1	inconclusive: 20.6 µM [cytotoxic, single point]	
CCc1ccc(CCC(=O)Nc2ccccc2C(=O)O)o1	inconclusive: 25.9 µM [cytotoxic, single point]	
O=C(Oc1c(CN2CCOCC2)cc(Cl)c2cccnc12)c1ccccc1Cl	inconclusive: 8.2 µM [cytotoxic, partial curve, poor fit]	
CCCC(=N)C1=C(O)CC(CC(C)SCC)CC1=O (stereo unspecified)	inconclusive: 23.1 µM [cytotoxic, single point]	
COc1ccc(OC)c(NS(=O)(=O)c2ccc(Cl)s2)c1	active: 16.4 µM	
O=C(Nc1ccc(F)cc1)NC1CCN(Cc2c(F)cccc2Cl)CC1	inconclusive: 18.4 µM [cytotoxic, partial curve]	
O=C(COc1ccc2ccccc2c1)NNC(=O)Cc1ccccc1	inactive	
CCCCN(CCCC)CCn1cnc2c([nH]c3ccc(OC)cc32)c1=O	inconclusive: 32.6 µM [cytotoxic, single point]	
COc1ccc(C(=O)Nc2ccc3c(c2)CCCN3S(=O)(=O)c2ccc(C)cc2)cc1	inconclusive: 0.731 µM [cytotoxic, partial curve, poor fit]	
COc1cc2cc3c(N)c(C(=O)NCc4ccco4)sc3nc2cc1OC	inconclusive: 6.51 µM [cytotoxic, partial curve, poor fit]	
CCCCN(C)c1nc(-c2ccco2)c2c(c1C#N)CC(C)(C)OC2	inactive	
CC(C)c1ccc(C(=O)Nc2ccc(N3CCOCC3)cc2)cc1	inactive	
O=C(Nc1cccc(F)c1)c1sc(Cl)nc1-c1ccccc1	inactive	
CCN(C(=O)C(C)Sc1ccc(S(=O)(=O)N2CCN(C)CC2)cn1)c1ccccc1 (stereo unspecified)	inactive	
COC(C(=O)N/N=C(\C)c1ccc(C(C)(C)C)cc1)c1ccccc1 (stereo unspecified)	inconclusive: 11.6 µM [cytotoxic, partial curve, poor fit]	
S=C(Nc1ccccc1Cl)N1CCCC(c2ccccc2)=N1	inconclusive: 29.1 µM [cytotoxic, single point]	
COC(=O)c1ccc(CN(c2ccc(C)cc2)S(=O)(=O)c2ccc3c(c2)OCCO3)o1	inactive	
CCCCCNC1=CC(=O)CC(c2ccccc2)C1 (stereo unspecified)	active: 14.6 µM	
COC(=O)C1=C[C@@H](C(=O)OC)[C@@H]2C3=C(C(=O)[C@]2(CC(C)C)NC(=O)c2ccccc2)[C@H](C)n2c(=O)n(-c4ccccc4)c(=O)n2[C@@H]3C1	inconclusive: 11.6 µM [rising, partial curve]	
